Earlier results in patent US20210315865A1 (Biohaven Therapeutics Ltd., priority 2018, published 2021).

Conditions: drug substance

chemical stability: pH dependent chemical stability
Structure (SMILES): Nc1nc2ccc(OC(F)(F)F)cc2s1 [riluzole, 6-(trifluoromethoxy)benzothiazol-2-amine]
